For at least one compound, name, drawing or mass did not settle the structure.
Tests used:
[1] = tested on: human CD19+ cells (B cells); test: CD80 expression on human CD19+ cells (FACS); type: cell-based; details: Example 15, FIG. 5; 1 nM to 10 μM, ORN mixed with DOTAP, 16 h
[2] = tested on: human CD14+ cells; test: CD80 expression on human CD14+ cells (FACS); type: cell-based; details: Example 14, FIG. 4; 1 nM to 10 μM, ORN mixed with DOTAP, 16 h

In the case of CCOCc1nc2c(N)nc3ccccc3c2n1CC(C)(C)O [R-848, resiquimod, reference compound], the “induction of co-stimulatory molecule CD80 on CD19+ cells (B cells)” value [1] is reported as “induce” and the “induction of co-stimulatory molecule CD80 on CD14+ cells” value [2] is reported as “induce”.
